According to paper PMC6069705:
Results are given in words; binding and its absence hold for the method and conditions named. Binding seen in cells or lysates may run through a third protein. Binding can be weak; no strength is given.

Molecular target: human tau P301S (PS19 transgene) (human)
Assay: co-IP; tau immunoprecipitated from 1 mg brain lysate of 6 month old PS19 mice (IP lysis buffer, 1% NP-40, 0.15 M NaCl, pH 7.4, with RNase inhibitor) with 10 ug Tau13 on Protein G Dynabeads, overnight at 4 C; normal mouse IgG as control; immunoblot

binding: binds
B1: HNRNPA0 (protein, UniProt Q9CX86 1-305)
chain: MENSQLCKLFIGGLNVQTSESGLRGHFEAFGTLTDCVVVVNPQTKRSRCFGFVTYSNVEEADAAMAASPHAVDGNTVELKRAVSREDSARPGAHAKVKKLFVGGLKGDVAEGDLIEHFSQFGAVEKAEIIADKQSGKKRGFGFVYFQSHDAADKAAVVKFHPIQGHRVEVKKAVPKEDIHAGGGGARAARGGRGGGRGRGGGGGGGGRDQNGLAKGGGGGGGGYNSYGGYGGYGAYGGGGGGGGSYGGSDYGNGFGGFGSYSQHQSSYGPMKSGGGGGGGGSWGGRSNSGPYRGGYGGGYGGGSF
